Here are results for two substances from paper PMC7847993.

This assay deals with T1, Arabidopsis PIP2;7 (Arabidopsis thaliana) (UniProt P93004).
T1 sequence: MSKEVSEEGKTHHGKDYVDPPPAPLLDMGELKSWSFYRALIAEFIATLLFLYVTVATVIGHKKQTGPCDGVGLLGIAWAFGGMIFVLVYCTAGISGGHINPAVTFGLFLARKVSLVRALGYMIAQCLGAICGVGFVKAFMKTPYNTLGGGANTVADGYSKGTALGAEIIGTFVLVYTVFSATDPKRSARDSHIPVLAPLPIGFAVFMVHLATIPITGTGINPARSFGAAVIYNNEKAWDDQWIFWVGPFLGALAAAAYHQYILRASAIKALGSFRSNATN
In words: split reporter; ratiometric BiFC (pBiFCt-2in1-NN vector, p35S): nEYFP-SNARE and cEYFP-PIP co-expressed in N. benthamiana leaf cells, imaged 3 days after agro-infiltration; YFP/RFP ratio at the plasma membrane compared with SYP121/PIP2;7 (positive) and SNAP33/PIP2;7 (negative).

No constants are given. Whether binding was seen depends on the method and setting. In cells and extracts the contact can be indirect. A result given as binding can be weak or reduced; the word gives no strength.

In the case of “SYP121ΔN (Arabidopsis thaliana) (domain or fragment)”, the binding result is “binds”.

On to ZmSYP121 (maize (Zea mays)), for which the binding entry is “binds”.
